Results deposited as PubChem BioAssay AID1159579 (Peter MacCallum Cancer Centre, 2015)

Assay: 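Find genes whose silencing alters migration of lymphatic endothelial cells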 (follow-up of hits)
Cell system: human dermal lymphatic endothelial cells
Reagent: single siRNA against human genes, 25 nM
Measurement: 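Scratch wound imaging measuring area filled by moving cells plus nuclei number, averaged over two wells and scaled to mock-transfected controls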
Direction: migration relative to mock: higher = more migration into the scratch; mean nuclei count: higher = more cells remaining
Active means: 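Called active when the migration ratio is 0.6 or lower (impaired) or 1.3 or higher (accelerated), but inactive whenever the mean nuclei count falls under 3300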
Calls: active = migration changed (impaired or accelerated); inactive = no migration change, or too few cells
This is a random part of about 2,000 deposited reagents. 549 of all reagents (27%) were called active. 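Some migration ratios are negative; siRNAs with too few cells are inactive whatever their migration ratio.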 Reagents against one gene are numbered here. Further read-outs or replicates are left out here. Not given: the time to read-out.

The opening 7 entries, ahead of the listing:
target gene	reagent	migration relative to mock	mean nuclei count	activity call
ABCC3 (ATP binding cassette subfamily C member 3)	1	0.38	6199	active
ABCC3 (ATP binding cassette subfamily C member 3)	2	0.46	5426	active
ABCC3 (ATP binding cassette subfamily C member 3)	3	0.91	6446	inactive
ABCC3 (ATP binding cassette subfamily C member 3)	4	0.62	5728	inactive
NEXMIF (neurite extension and migration factor)	1	0.82	4980	inactive
NEXMIF (neurite extension and migration factor)	2	0.9	5396	inactive
NEXMIF (neurite extension and migration factor)	3	1.03	5102	inactive

Main list, from the first entry:
target gene	reagent	migration relative to mock	mean nuclei count	activity call
ABCC3 (ATP binding cassette subfamily C member 3)	1	0.38	6199	active
ABCC3 (ATP binding cassette subfamily C member 3)	2	0.46	5426	active
ABCC3 (ATP binding cassette subfamily C member 3)	3	0.91	6446	inactive
ABCC3 (ATP binding cassette subfamily C member 3)	4	0.62	5728	inactive
NEXMIF (neurite extension and migration factor)	1	0.82	4980	inactive
NEXMIF (neurite extension and migration factor)	2	0.9	5396	inactive
NEXMIF (neurite extension and migration factor)	3	1.03	5102	inactive
NEXMIF (neurite extension and migration factor)	4	0.36	5336	active
PCDHGA6 (protocadherin gamma subfamily A, 6)	1	0.66	6822	inactive
PCDHGA6 (protocadherin gamma subfamily A, 6)	2	0.99	6963	inactive
PCDHGA6 (protocadherin gamma subfamily A, 6)	3	0.8	6057	inactive
PCDHGA6 (protocadherin gamma subfamily A, 6)	4	0.55	5189	active
LAMA4 (laminin subunit alpha 4)	1	1.17	6095	inactive
LAMA4 (laminin subunit alpha 4)	2	0.5	5473	active
LAMA4 (laminin subunit alpha 4)	3	-1.1	2309	inactive
LAMA4 (laminin subunit alpha 4)	4	0.75	7020	inactive
TFAP2C (transcription factor AP-2 gamma)	1	0.86	5932	inactive
TFAP2C (transcription factor AP-2 gamma)	2	0.03	3324	active
TFAP2C (transcription factor AP-2 gamma)	3	0.52	5089	active
TFAP2C (transcription factor AP-2 gamma)	4	0.79	5820	inactive
NDUFA8 (NADH:ubiquinone oxidoreductase subunit A8)	1	0.84	5420	inactive
NDUFA8 (NADH:ubiquinone oxidoreductase subunit A8)	2	0.62	4633	inactive
NDUFA8 (NADH:ubiquinone oxidoreductase subunit A8)	3	0.57	5276	active
NDUFA8 (NADH:ubiquinone oxidoreductase subunit A8)	4	0.92	6327	inactive
CRIPT (CXXC repeat containing interactor of PDZ3 domain)	1	1	5776	inactive
CRIPT (CXXC repeat containing interactor of PDZ3 domain)	2	0.61	5584	inactive
CRIPT (CXXC repeat containing interactor of PDZ3 domain)	3	0.96	5566	inactive
CRIPT (CXXC repeat containing interactor of PDZ3 domain)	4	0.94	5674	inactive
SYCP2L (synaptonemal complex protein 2 like)	1	0.45	6126	active
SYCP2L (synaptonemal complex protein 2 like)	2	0.61	5008	inactive
SYCP2L (synaptonemal complex protein 2 like)	3	0.72	5418	inactive
SYCP2L (synaptonemal complex protein 2 like)	4	0.96	6306	inactive
SLC13A5	1	0.86	7588	inactive
SLC13A5	2	-0.4	4085	active
SLC13A5	3	0.78	5546	inactive
SLC13A5	4	0.99	6970	inactive
APOA2 (apolipoprotein A2)	1	0.18	4669	active
APOA2 (apolipoprotein A2)	2	0.62	5444	inactive
APOA2 (apolipoprotein A2)	3	0.16	4344	active
APOA2 (apolipoprotein A2)	4	0.24	5214	active
DEFA3 (defensin alpha 3)	1	0.82	5715	inactive
DEFA3 (defensin alpha 3)	2	0.56	5468	active
DEFA3 (defensin alpha 3)	3	0.62	7414	inactive
DEFA3 (defensin alpha 3)	4	0.73	5466	inactive
FTMT (ferritin mitochondrial)	1	0.87	4876	inactive
FTMT (ferritin mitochondrial)	2	1.15	5440	inactive
FTMT (ferritin mitochondrial)	3	0.92	6364	inactive
FTMT (ferritin mitochondrial)	4	1.04	5466	inactive
NUDT2 (nudix hydrolase 2)	1	0.52	5379	active
NUDT2 (nudix hydrolase 2)	2	0.84	5538	inactive
NUDT2 (nudix hydrolase 2)	3	0.64	5039	inactive
NUDT2 (nudix hydrolase 2)	4	0.57	5076	active
MTPN (myotrophin)	1	0.56	4688	active
MTPN (myotrophin)	2	0.9	6366	inactive
MTPN (myotrophin)	3	0.51	3772	active
MTPN (myotrophin)	4	0.48	6857	active
JHY (junctional cadherin complex regulator)	1	0.74	5784	inactive
JHY (junctional cadherin complex regulator)	2	0.28	4820	active
JHY (junctional cadherin complex regulator)	3	0.6	4600	active
JHY (junctional cadherin complex regulator)	4	0.9	4306	inactive
AKT2 (AKT serine/threonine kinase 2)	1	0.84	7106	inactive
AKT2 (AKT serine/threonine kinase 2)	2	0.92	6862	inactive
AKT2 (AKT serine/threonine kinase 2)	3	0.7	5480	inactive
AKT2 (AKT serine/threonine kinase 2)	4	1.08	7283	inactive
RAB36 (RAB36, member RAS oncogene family)	1	0.05	4267	active
RAB36 (RAB36, member RAS oncogene family)	2	0.9	6340	inactive
RAB36 (RAB36, member RAS oncogene family)	3	0.69	6186	inactive
RAB36 (RAB36, member RAS oncogene family)	4	0.91	5758	inactive
PLPP3 (phospholipid phosphatase 3)	1	0.8	6739	inactive
PLPP3 (phospholipid phosphatase 3)	2	0.96	6368	inactive
PLPP3 (phospholipid phosphatase 3)	3	0.24	6990	active
PLPP3 (phospholipid phosphatase 3)	4	0.44	6697	active
CUEDC2 (CUE domain containing 2)	1	1.08	6455	inactive
CUEDC2 (CUE domain containing 2)	2	0.54	3264	inactive
CUEDC2 (CUE domain containing 2)	3	0.98	6245	inactive
CUEDC2 (CUE domain containing 2)	4	1.19	6087	inactive
MEGF11 (multiple EGF like domains 11)	1	0.74	5366	inactive
MEGF11 (multiple EGF like domains 11)	2	0.74	6612	inactive
MEGF11 (multiple EGF like domains 11)	3	0.43	5135	active
MEGF11 (multiple EGF like domains 11)	4	-0.18	2654	inactive
SDCCAG8 (SHH signaling and ciliogenesis regulator SDCCAG8)	1	0.26	4045	active
SDCCAG8 (SHH signaling and ciliogenesis regulator SDCCAG8)	2	0.36	5262	active
SDCCAG8 (SHH signaling and ciliogenesis regulator SDCCAG8)	3	1.1	5190	inactive
SDCCAG8 (SHH signaling and ciliogenesis regulator SDCCAG8)	4	0.7	3962	inactive
ODAPH (odontogenesis associated phosphoprotein)	1	0.62	5684	inactive
ODAPH (odontogenesis associated phosphoprotein)	2	0.54	4034	active
ODAPH (odontogenesis associated phosphoprotein)	3	0.9	6410	inactive
ODAPH (odontogenesis associated phosphoprotein)	4	0.86	4687	inactive
